Source: PMC11178496
These are yes or no findings as the source states them, for the method shown. Binding seen in cells or lysates may run through a third protein. Here binding means that the protein was enriched with, or labelled near, the bait; the list need not be complete.

Sequences of proteins named here, by UniProt entry; tags and fusion partners are left off. Residues count along the entry.
UniProt P25445, residues 26-335: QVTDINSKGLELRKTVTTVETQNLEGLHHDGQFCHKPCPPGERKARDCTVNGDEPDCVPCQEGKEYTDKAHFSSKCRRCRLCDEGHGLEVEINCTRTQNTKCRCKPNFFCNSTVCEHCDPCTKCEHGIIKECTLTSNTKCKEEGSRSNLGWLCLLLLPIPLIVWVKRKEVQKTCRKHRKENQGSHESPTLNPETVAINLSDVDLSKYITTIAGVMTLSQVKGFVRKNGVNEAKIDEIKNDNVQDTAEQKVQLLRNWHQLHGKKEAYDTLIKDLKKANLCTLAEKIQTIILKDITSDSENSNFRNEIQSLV
UniProt Q14790: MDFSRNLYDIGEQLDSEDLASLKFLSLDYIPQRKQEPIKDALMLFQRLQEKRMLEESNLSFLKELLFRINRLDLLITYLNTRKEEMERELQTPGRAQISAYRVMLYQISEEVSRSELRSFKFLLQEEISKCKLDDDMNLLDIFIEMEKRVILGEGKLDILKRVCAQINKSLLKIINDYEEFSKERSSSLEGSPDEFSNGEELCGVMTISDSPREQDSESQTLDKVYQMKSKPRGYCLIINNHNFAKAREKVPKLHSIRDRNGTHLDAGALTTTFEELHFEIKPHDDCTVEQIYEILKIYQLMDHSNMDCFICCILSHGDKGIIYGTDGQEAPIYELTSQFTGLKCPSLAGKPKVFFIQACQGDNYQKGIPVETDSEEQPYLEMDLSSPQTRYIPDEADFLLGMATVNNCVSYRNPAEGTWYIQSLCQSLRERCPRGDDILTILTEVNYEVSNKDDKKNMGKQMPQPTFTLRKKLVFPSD

Legend:
[1] = biological target: CD95/Fas (human (endogenous in SKW 6.4)) (UniProt P25445); assay: affinity purification with mass spectrometry; anti-caspase-8 or anti-CD95 (anti-APO-1) antibodies covalently coupled to sepharose beads (Pierce Co-Immunoprecipitation kit); total lysates of SKW 6.4 cells treated for 15 min with 166 ng/mL CD95L or left untreated; nanoLC-tandem mass spectrometry
[2] = biological target: Procaspase-8 (human (endogenous in SKW 6.4)) (UniProt Q14790); assay: as above

binding [1]: binds
binding [2]: binds
B1: RIOK1 (protein, UniProt Q9BRS2 1-568)
chain: MDYRRLLMSRVVPGQFDDADSSDSENRDLKTVKEKDDILFEDLQDNVNENGEGEIEDEEEEGYDDDDDDWDWDEGVGKLAKGYVWNGGSNPQANRQTSDSSSAKMSTPADKVLRKFENKINLDKLNVTDSVINKVTEKSRQKEADMYRIKDKADRATVEQVLDPRTRMILFKMLTRGIITEINGCISTGKEANVYHASTANGESRAIKIYKTSILVFKDRDKYVSGEFRFRHGYCKGNPRKMVKTWAEKEMRNLIRLNTAEIPCPEPIMLRSHVLVMSFIGKDDMPAPLLKNVQLSESKARELYLQVIQYMRRMYQDARLVHADLSEFNMLYHGGGVYIIDVSQSVEHDHPHALEFLRKDCANVNDFFMRHSVAVMTVRELFEFVTDPSITHENMDAYLSKAMEIASQRTKEERSSQDHVDEEVFKRAYIPRTLNEVKNYERDMDIIMKLKEEDMAMNAQQDNILYQTVTGLKKDLSGVQKVPALLENQVEERTCSDSEDIGSSECSDTDSEEQGDHARPKKHTTDPDIDKKERKKMVKEAQREKRKNKIPKHVKKRKEKTAKTKKGK
